Assay results: patent publication US20140336365A1, “CDR REGIONS OF MONOCLONAL ANTIBODY THAT ANTAGONIZE SPHINOGOSINE 1-PHOSPHATE AND RELATED METHODS” (priority 2011, published 2014)
No constants are given. Whether binding was seen depends on the method and setting. Some entries that bind do so weakly or less than the wild type.

The chains behind the UniProt entries cited, without tags or fusion partners.
UniProt Q99500: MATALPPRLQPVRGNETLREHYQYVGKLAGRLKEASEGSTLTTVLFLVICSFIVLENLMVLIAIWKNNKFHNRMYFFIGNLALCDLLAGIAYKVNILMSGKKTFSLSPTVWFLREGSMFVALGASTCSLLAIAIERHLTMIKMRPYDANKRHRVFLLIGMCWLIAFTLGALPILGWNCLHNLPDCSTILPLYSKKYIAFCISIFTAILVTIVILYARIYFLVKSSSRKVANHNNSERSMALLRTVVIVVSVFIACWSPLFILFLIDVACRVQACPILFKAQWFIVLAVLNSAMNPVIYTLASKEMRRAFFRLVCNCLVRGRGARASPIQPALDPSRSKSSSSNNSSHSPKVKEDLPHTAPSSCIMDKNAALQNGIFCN

How the values were obtained:
[1] = molecular target: Full-length S1P3 protein fused to either a V5 epitope or enhanced green fluorescent protein (EGFP) on its C-terminal end, expressed on HEK293 cells (UniProt Q99500); assay: immunocytochemistry on S1P3-transfected HEK293 cells
[2] = molecular target: Full-length S1P3 protein fused to either a V5 epitope or enhanced green fluorescent protein (EGFP) on its C-terminal end, expressed on HEK293 cells (UniProt Q99500); assay: immunocytochemistry of hybridoma supernatants on S1P3-transfected HEK293 cells

binding [1]: binds
binding [2]: binds
B1: Monoclonal antibody Mab7H9 produced by hybridoma EDDbeta7H9 (ATCC PTA-9973) (antibody, V domains shown)
VH: QVTLKESGPGILQPSQTLSLTCSFSGFSLSTSNMGVGWIRQPSGKGLEWLLHILWNDNKHYNPALKSRLTISKDTYKNQVFLKIANVDTADTATYYCARILYRSNYYVMDYWGQGTSVTVSS
VL: DIVMTQSHKFMSTSVGDRVSITCKASQDVSTGVVWYQQKEGQSPKLLIYSASYRYTGVPNRFTGSGSGTDFTFTISGVQAEDLAVYYCQQHYSSPTFGGGTKLEIKR
